The record followed here is US20190359698A1.

These are yes or no findings as the source states them, for the method shown. Some binding calls cover weakened binding; strength is not graded here.

This test has as its target GPC3 N-terminal fragment (polypeptide consisting of the amino acid sequence represented by SEQ ID NO: 155) (human) (UniProt P09619). Briefly: FCM of IgG on GPC3 N-terminal fragment-expressing cell line.

B1: IgG clone TF1413-03e004 (antibody, V domains shown)
VH: QVQLKQSGAELVKPGAPVKLSCKASGYTFTSYWMNWVKQRPGRGLEWIGRIDPSDSETHYNQKFKDKATLTVDKSSSTAYIQLSSLTSEDSAVYYCARGYYGSNYWGQGTTLTVSS
VL: DIKMTQSPKFMSTSVGDRVSVTCKASQNVGTNVAWYQQKPGQSPKALIYSASYRYSGVPDRFTGSGSGTDFTLTISNVQSEDLAEYFCQQYNSYPLTFGAGTKLELKR
As for B1, the binding result is given as “binds”.
